# Data: the supplement of paper PMC4807443
# Where a name gives a salt, the structure may show the parent alone. The list shows a part of the results. The numbers are fractions of the control, whatever unit the source prints. Most values lie at the level of the controls, where differences are scatter.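 MIN6 is a mouse insulinoma beta-cell line that stably carries a lentiviral reporter in which the Pdx1 and Ins1 promoters each drive a nucleus-targeted fluorescent protein; cells were counted by automated imaging with a Hoechst nuclear stain. In the screen, a drug was a possible hit when its Ins1 promoter readout lay beyond two median absolute deviations from the DMSO controls while Pdx1 activity stayed near normal.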
# Test system: MIN6
# Assay: % Pdx1+ Ins1+ (double-positive, mature) cells relative to DMSO control (fold of DMSO control); higher = more mature Ins1 promoter-active cells
# Settings: 8.5 µM; 48 h; glucose 5 mM
row,SMILES,% Pdx1+ Ins1+
1,CN1CCN(CCCN2c3ccccc3Sc3ccc(C(F)(F)F)cc32)CC1 [Trifluoperazine dihydrochloride],1.1
2,COc1ccc(OC)c(C(O)CNC(=O)CN)c1 (configuration not stated) [Midodrine hydrochloride],1.11
3,CN(C(=O)C(Cl)Cl)c1ccc(OC(=O)c2ccco2)cc1 [Diloxanide furoate],0.983
4,Nc1ccn([C@H]2CC[C@@H](CO)O2)c(=O)n1 [Zalcitabine],0.878
5,Oc1c(I)cc(Cl)c2cccnc12 [Clioquinol],1.03
6,CN(C)CCOC(C)(c1ccccc1)c1ccccn1 (configuration not stated) [Doxylamine succinate],1.1
7,CC(=O)c1ccc2c(c1)N(CCCN(C)C)c1ccccc1S2 [Acetopromazine maleate salt],0.829
8,CC(=O)[C@H]1CC[C@H]2[C@@H]3C=CC4=CC(=O)CC[C@@]4(C)[C@@H]3CC[C@]12C [Dydrogesterone],0.866
9,NC[C@@H]1O[C@H](O[C@H]2[C@@H](O)[C@H](O[C@@H]3[C@@H](O)[C@H](N)C[C@H](N)[C@H]3O[C@H]3O[C@H](CO)[C@@H](O)[C@H](O)[C@H]3N)O[C@@H]2CO)[C@H](N)[C@@H](O)[C@@H]1O [Paromomycin sulfate],1.06
10,COc1ccccc1OCC(O)CO (configuration not stated) [Guaifenesin],0.853
11,Cc1cccc(C)c1OCC(C)N (configuration not stated) [Mexiletine hydrochloride],1.14
12,Oc1ccc(/C=C/c2cc(O)cc(O)c2)cc1 [Resveratrol],0.768
13,Cc1c(N(C)C)c(=O)n(-c2ccccc2)n1C [Amidopyrine],1.11
14,CCCCc1cc2ccccc2c(OCCN(C)C)n1 [Dimethisoquin hydrochloride],0.87
15,Cc1cccc(C)c1NC(=O)C(C)N (configuration not stated) [Tocainide hydrochloride],0.964
16,CN(C)C(=O)C(CCN1CCC(O)(c2ccc(Cl)cc2)CC1)(c1ccccc1)c1ccccc1 [Loperamide hydrochloride],1.01
17,O=C(OCC(O)CO)c1ccccc1Nc1ccnc2cc(Cl)ccc12 (configuration not stated) [Glafenine hydrochloride],0.93
18,CC(C(=O)O)c1ccc(-c2ccccc2)c(F)c1 (configuration not stated) [Flurbiprofen],0.943
19,O=c1ccc2cc(O)c(O)cc2o1 [Esculetin],0.803
20,COc1cc([S+](C)[O-])ccc1-c1nc2cccnc2[nH]1 (configuration not stated) [Sulmazole],0.741
21,C[C@H]1O[C@@H](O[C@H]2[C@@H](O)C[C@H](O[C@H]3[C@@H](O)C[C@H](O[C@H]4CC[C@@]5(C)[C@H](CC[C@@H]6[C@@H]5C[C@@H](O)[C@]5(C)[C@@H](C7=CC(=O)OC7)CC[C@]65O)C4)O[C@@H]3C)O[C@@H]2C)C[C@H](O)[C@@H]1O [Digoxin],0.963
22,NS(=O)(=O)c1cc2c(cc1Cl)NC(C(Cl)Cl)NS2(=O)=O (configuration not stated) [Trichlormethiazide],1.03
23,CN[C@@H]1[C@H](O)[C@H](NC)[C@H]2O[C@@]3(O)C(=O)C[C@@H](C)O[C@H]3O[C@@H]2[C@H]1O [Spectinomycin dihydrochloride],1.11
24,Cc1onc(-c2ccccc2Cl)c1C(=O)N[C@@H]1C(=O)N2[C@@H]1SC(C)(C)[C@@H]2C(=O)O [Cloxacillin sodium salt],1.12

row,SMILES,% Pdx1+ Ins1+
1,N[C@@H](C(=O)N[C@@H]1C(=O)N2C(C(=O)O)=C(Cl)CC[C@H]12)c1ccccc1 [Loracarbef],0.849
2,CN[C@@H]1[C@@H](O[C@H]2O[C@H](CO)[C@@H](N)[C@H](O)[C@H]2O)OC2C[C@@H](N)[C@@H](O[C@H]3[C@H](O)[C@@H](O)[C@H](N)C[C@@H]3N)OC2[C@@H]1O (some centres not stated) [Apramycin],0.975
3,Cc1c(-c2ccccc2)oc2c(C(=O)OCCN3CCCCC3)cccc2c1=O [Flavoxate hydrochloride],1.06
4,Cn1cnc2c1c(=O)[nH]c(=O)n2C [Theobromine],0.979
5,CCN(CC)CCNC(=O)c1cc(Cl)c(N)cc1OC [Metoclopramide monohydrochloride],1.18
6,CCOc1ccc2ccccc2c1C(=O)N[C@@H]1C(=O)N2[C@@H]1SC(C)(C)[C@@H]2C(=O)O [Nafcillin sodium salt monohydrate],0.923
7,CN(C)C/C=C(/c1ccc(Br)cc1)c1cccnc1 [Zimelidine dihydrochloride monohydrate],1.11
8,CC(C)(CO)C(O)C(=O)NCCCO (configuration not stated) [Panthenol (D)],1.03
9,Cc1ccc2c(c1)c1c3n2CCNC3CCC1 (configuration not stated) [Pirlindole mesylate],0.874
10,CCC[C@@H]1C[C@@H](C(=O)N[C@@H]([C@H]2O[C@H](SC)[C@H](O)[C@@H](O)[C@H]2O)[C@H](C)Cl)N(C)C1 [Clindamycin hydrochloride],1.06
11,O=C(N[C@H](CO)[C@H](O)c1ccc([N+](=O)[O-])cc1)C(Cl)Cl [Chloramphenicol],1.1
12,CN(C)CCC=C1c2ccccc2COc2ccccc21 [Doxepin hydrochloride],1.02
13,CC(C)[N+](C)(CCOC(=O)C1c2ccccc2Oc2ccccc21)C(C)C [Propantheline bromide],0.751
14,Nc1ccccc1S(N)(=O)=O [2-Aminobenzenesulfonamide],0.959
15,O=C(O)c1cn(C2CC2)c2cc(N3CCNCC3)c(F)cc2c1=O [Ciprofloxacin hydrochloride],0.994
16,C1COC(NC(C2CC2)C2CC2)=N1 [Rilmenidine hemifumarate],0.787
17,COc1cc(C(=O)NCc2ccc(OCCN(C)C)cc2)cc(OC)c1OC [Trimethobenzamide hydrochloride],1.12
18,CC(C)NCC(O)COc1ccc(CCOCC2CC2)cc1 (configuration not stated) [Betaxolol hydrochloride],0.916
19,CCc1nc(N)nc(N)c1-c1ccc(Cl)cc1 [Pyrimethamine],1
20,CC(=O)[C@@]1(O)CC[C@H]2[C@@H]3C[C@H](C)C4=CC(=O)C=C[C@]4(C)[C@@]3(F)[C@@H](O)C[C@@]21C [Fluorometholone],0.858
21,C1CCC(C(CC2CCCCN2)C2CCCCC2)CC1 (configuration not stated) [Perhexiline maleate],0.917
22,C[C@H]1c2cccc(O)c2C(=O)C2=C(O)[C@]3(O)C(=O)C(C(N)=O)=C(O)[C@@H](N(C)C)[C@@H]3[C@@H](O)[C@@H]21 [Doxycycline hydrochloride],1.08
23,"C[C@](N)(Cc1ccc(O)c(O)c1)C(=O)O [Methyldopa (L,-)]",0.932
24,c1cnc(N2CCN(Cc3ccc4c(c3)OCO4)CC2)nc1 [Piribedil hydrochloride],0.929

# Retrieved by compound from the list above:
row,SMILES,% Pdx1+ Ins1+
18,CC(C)NCC(O)COc1ccc(CCOCC2CC2)cc1 (configuration not stated) [Betaxolol hydrochloride],0.916
11,O=C(N[C@H](CO)[C@H](O)c1ccc([N+](=O)[O-])cc1)C(Cl)Cl [Chloramphenicol],1.1
20,CC(=O)[C@@]1(O)CC[C@H]2[C@@H]3C[C@H](C)C4=CC(=O)C=C[C@]4(C)[C@@]3(F)[C@@H](O)C[C@@]21C [Fluorometholone],0.858
5,CCN(CC)CCNC(=O)c1cc(Cl)c(N)cc1OC [Metoclopramide monohydrochloride],1.18
10,CCC[C@@H]1C[C@@H](C(=O)N[C@@H]([C@H]2O[C@H](SC)[C@H](O)[C@@H](O)[C@H]2O)[C@H](C)Cl)N(C)C1 [Clindamycin hydrochloride],1.06
8,CC(C)(CO)C(O)C(=O)NCCCO (configuration not stated) [Panthenol (D)],1.03

# More entries:

row,SMILES,% Pdx1+ Ins1+
1,CCCC1C(=O)N2C(N(C)C)=Nc3ccc(C)cc3N2C1=O (configuration not stated) [Azapropazone],0.954
2,CN1CCCN=C1/C=C/c1cccc(O)c1 [Oxantel pamoate],1.02
3,CC(N)CCCC(C)(C)O (configuration not stated) [Heptaminol hydrochloride],0.721
4,CC1(C)S[C@@H]2[C@H](NC(=O)C3(N)CCCCC3)C(=O)N2[C@H]1C(=O)O [Cyclacillin],0.888
5,C[C@@H]1CCC[C@H](C)N1 [(cis-) Nanophine],0.86
6,C[C@H]1[C@H](C)CC[C@]2(C(=O)O[C@@H]3O[C@H](CO[C@@H]4O[C@H](CO)[C@@H](O[C@@H]5O[C@H](C)[C@H](O)[C@@H](O)[C@H]5O)[C@H](O)[C@H]4O)[C@@H](O)[C@H](O)[C@H]3O)CC[C@]3(C)C(=CC[C@@H]4[C@@]5(C)C[C@@H](O)[C@H](O)[C@@](C)(CO)[C@@H]5CC[C@]43C)[C@H]12 [Asiaticoside],0.948
7,"Cc1c(O)c(=O)n(-c2ccccc2)n1C [Antipyrine, 4-hydroxy]",1.06
8,CC(C)OC(=O)C(C)(C)Oc1ccc(C(=O)c2ccc(Cl)cc2)cc1 [Fenofibrate],1.09
9,CN1CCCN(C(c2ccccc2)c2ccc(Cl)cc2)CC1 (configuration not stated) [Homochlorcyclizine dihydrochloride],1.15
10,C[C@@H]1C[C@H]2[C@@H]3CCC4=CC(=O)C=C[C@]4(C)[C@@]3(Cl)[C@@H](O)C[C@]2(C)[C@@]1(OC(=O)c1ccco1)C(=O)CCl [Mometasone furoate],0.882
11,Nc1ncnc2c1ncn2C1OC(COP(=O)(O)O)C(O)C1O (configuration not stated) [Adenosine 5'-monophosphate monohydrate],0.914
12,CCCCc1ccc2[nH]c(NC(=O)OC)nc2c1 [Parbendazole],0.864
13,CCc1cccc(CC)c1NC(=O)CN(CC(=O)O)CC(=O)O [Etifenin],0.945
14,CN/C(=N\CCSCc1nc[nH]c1C)NC#N [Cimetidine],1.03
15,O=C(O)c1cc(/N=N/c2ccc(S(=O)(=O)Nc3ccccn3)cc2)ccc1O [Sulfasalazine],0.829
16,C/C=C(/C(=C/C)c1ccc(O)cc1)c1ccc(O)cc1 [Dienestrol],0.849
17,O=C(O)c1ccccc1OP(=O)(O)O [Fosfosal],1
18,Nc1cc(N2CCCCC2)nc(N)[n+]1[O-] [Minoxidil],1.04
19,COc1ccc2cc([C@H](C)C(=O)O)ccc2c1 [Naproxen],0.918
20,O=c1n(CCCN2CCN(c3cccc(Cl)c3)CC2)nc2ccccn12 [Trazodone hydrochloride],1.16
21,CC1(C)S[C@@H]2[C@H](NC(=O)[C@H](N)c3ccccc3)C(=O)N2[C@H]1C(=O)O [Ampicillin trihydrate],1.11
22,NC(=O)c1cnccn1 [Pyrazinamide],0.951
23,O=C(CCNNC(=O)c1ccncc1)NCc1ccccc1 [Nialamide],0.802
24,N/C(=N\C(=O)c1nc(Cl)c(N)nc1N)NCc1ccccc1 [Benzamil hydrochloride],0.826
